No constants are given. Whether binding was seen depends on the method and setting. Binding seen in cells or lysates may run through a third protein. Here binding means that the protein was enriched with, or labelled near, the bait; the list need not be complete. For some assays here: A no says only that the protein was not detected with the bait.
B1: calsyntenin-3 (protein, UniProt Q99JH7 20-956)
chain: NKANKHKPWIEAEYQGIVMENDNTVLLNPPLFALDKDAPLRYAGEICGFRLHGSGVPFEAVILDKATGEGLIRAKEPVDCEAQKEHTFTIQAYDCGEGPDGTNTKKSHKATVHVRVNDVNEFAPVFVERLYRAAVTEGKLYDRILRVEAIDGDCSPQYSQICYYEILTPNTPFLIDNDGNIENTEKLQYSGEKLYKFTVTAYDCGKKRAADDAEVEIQVKPTCKPSWQGWNKRIEYAPGAGSLALFPGIRLETCDEPLWNIQATIELQTSHVAKGCDRDNYSERALRKLCGAATGEVDLLPMPGPNANWTAGLSVHYSQDSSLIYWFNGTQAVQVPLGGPAGLGSGPQDGFSDHFTLSFWMKHSVTPSKGKKEEETIVCNTVQNEDGYSHYSLTVHGCRIAFLYWPLLESARPVKFLWKLEQVCDDEWHHYALNLEFPTVTLYTDGISFDPALIHDNGLIHPPRREPALMIGACWTEEKNKEKKGGENSTDTASGDPLLIHHYFHGYLAGFSVRSGRLESREVIECLYACREGLDYRDFESLGKGMKVHVNPSQSLLTLEGDDVETFNHALQHVAYMNTLRFATPGVRPLRLTTAVKCFSEESCVSIPEVEGYVVVLQPDAPQILLSGTAHFARPAVDFEGPEGVPLFPDLQITCSISHQVEAKADESWQGTVTDTRMSDEIVHNLDGCEISLVGDDLDPERESLLLDMASLQQRGLELTNTSAYLTIAGVETITVYEEILRQARYQLRHGAALYARKFRLSCSEMNGRYSSNEFIVEVNVLHSMNRVAHPSHVLSSQQFLHRGHQPPPEMAGHSLASSHRNSMVPSAATLIIVVCVGFLVLMVILGLVRIHSLHRRVSGTGGPSGASTDPKDPDLFWDDSALTIIVNPMESYQNQQTCVAGVAGGQQEEEDSSDSEAADSPSSDERRIIESPPHRY

Chains of the proteins cited; added tags and fusions are not shown.
UniProt Q9R0N3: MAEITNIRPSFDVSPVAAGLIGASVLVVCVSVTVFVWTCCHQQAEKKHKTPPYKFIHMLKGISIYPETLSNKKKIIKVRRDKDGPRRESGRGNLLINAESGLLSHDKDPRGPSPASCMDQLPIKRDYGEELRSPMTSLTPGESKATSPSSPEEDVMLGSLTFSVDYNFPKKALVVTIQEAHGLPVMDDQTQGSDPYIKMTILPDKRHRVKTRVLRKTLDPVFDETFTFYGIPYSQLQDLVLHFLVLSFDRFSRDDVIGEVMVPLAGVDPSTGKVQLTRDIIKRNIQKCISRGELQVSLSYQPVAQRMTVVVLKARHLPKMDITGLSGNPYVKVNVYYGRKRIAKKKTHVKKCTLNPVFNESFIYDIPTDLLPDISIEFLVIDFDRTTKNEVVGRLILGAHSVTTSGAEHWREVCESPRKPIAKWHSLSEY
UniProt O55017: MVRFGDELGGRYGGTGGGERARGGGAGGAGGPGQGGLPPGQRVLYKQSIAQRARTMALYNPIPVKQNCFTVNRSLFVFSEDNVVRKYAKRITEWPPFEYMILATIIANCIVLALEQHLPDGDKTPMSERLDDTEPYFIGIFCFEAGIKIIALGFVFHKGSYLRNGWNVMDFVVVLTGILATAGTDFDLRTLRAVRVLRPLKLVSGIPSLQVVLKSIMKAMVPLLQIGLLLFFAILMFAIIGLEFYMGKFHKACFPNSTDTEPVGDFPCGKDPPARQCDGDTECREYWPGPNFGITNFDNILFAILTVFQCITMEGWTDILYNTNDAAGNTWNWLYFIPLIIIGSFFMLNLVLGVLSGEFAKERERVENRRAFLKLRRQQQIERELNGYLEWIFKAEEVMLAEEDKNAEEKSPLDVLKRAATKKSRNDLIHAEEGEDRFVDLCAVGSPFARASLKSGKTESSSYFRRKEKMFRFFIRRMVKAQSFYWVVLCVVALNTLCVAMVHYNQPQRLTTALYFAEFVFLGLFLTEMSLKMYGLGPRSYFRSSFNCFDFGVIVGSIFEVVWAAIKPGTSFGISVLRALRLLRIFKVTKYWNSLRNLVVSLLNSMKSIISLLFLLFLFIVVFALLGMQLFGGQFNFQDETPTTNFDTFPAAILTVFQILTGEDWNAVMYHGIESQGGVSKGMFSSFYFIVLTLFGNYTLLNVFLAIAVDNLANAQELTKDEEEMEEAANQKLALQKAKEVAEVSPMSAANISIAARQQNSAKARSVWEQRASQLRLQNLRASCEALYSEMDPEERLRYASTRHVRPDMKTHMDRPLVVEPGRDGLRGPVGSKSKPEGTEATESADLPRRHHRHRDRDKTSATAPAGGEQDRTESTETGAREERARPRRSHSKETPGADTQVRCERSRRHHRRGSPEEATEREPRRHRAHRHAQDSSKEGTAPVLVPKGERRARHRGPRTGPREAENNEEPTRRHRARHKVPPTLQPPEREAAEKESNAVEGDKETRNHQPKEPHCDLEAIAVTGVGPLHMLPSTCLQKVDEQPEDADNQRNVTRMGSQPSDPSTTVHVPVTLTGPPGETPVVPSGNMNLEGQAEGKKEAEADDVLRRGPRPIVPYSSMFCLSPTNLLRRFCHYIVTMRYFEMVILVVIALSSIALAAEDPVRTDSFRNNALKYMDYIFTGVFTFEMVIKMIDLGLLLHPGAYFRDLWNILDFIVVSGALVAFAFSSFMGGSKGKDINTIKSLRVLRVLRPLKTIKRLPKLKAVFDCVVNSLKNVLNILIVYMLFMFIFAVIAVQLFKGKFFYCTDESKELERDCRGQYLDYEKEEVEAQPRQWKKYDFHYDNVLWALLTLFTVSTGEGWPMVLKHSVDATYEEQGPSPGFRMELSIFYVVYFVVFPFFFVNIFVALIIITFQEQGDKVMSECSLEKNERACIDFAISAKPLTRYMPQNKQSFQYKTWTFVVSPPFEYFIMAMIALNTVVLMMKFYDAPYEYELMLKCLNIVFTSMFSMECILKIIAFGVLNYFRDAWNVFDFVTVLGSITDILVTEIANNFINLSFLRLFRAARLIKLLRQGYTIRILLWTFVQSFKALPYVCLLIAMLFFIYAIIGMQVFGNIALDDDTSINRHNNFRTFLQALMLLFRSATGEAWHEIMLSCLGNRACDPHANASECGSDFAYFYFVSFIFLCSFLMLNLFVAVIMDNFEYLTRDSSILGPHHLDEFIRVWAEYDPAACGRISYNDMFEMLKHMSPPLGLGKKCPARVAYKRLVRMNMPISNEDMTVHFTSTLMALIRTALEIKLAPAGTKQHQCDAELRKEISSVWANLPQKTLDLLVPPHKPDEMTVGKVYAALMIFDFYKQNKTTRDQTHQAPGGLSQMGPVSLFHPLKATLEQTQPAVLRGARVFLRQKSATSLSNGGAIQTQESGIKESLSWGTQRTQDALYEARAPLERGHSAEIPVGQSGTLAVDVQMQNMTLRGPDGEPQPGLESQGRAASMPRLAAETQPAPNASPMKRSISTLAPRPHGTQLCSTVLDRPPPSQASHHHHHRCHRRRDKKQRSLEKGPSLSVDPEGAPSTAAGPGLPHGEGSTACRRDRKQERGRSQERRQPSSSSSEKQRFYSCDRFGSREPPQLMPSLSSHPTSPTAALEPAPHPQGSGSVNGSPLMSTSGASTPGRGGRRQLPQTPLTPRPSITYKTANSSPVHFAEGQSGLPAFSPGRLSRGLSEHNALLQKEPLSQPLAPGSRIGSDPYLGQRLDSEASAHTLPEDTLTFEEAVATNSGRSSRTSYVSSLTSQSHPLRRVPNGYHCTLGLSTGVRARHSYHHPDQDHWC
UniProt Q5DTY9: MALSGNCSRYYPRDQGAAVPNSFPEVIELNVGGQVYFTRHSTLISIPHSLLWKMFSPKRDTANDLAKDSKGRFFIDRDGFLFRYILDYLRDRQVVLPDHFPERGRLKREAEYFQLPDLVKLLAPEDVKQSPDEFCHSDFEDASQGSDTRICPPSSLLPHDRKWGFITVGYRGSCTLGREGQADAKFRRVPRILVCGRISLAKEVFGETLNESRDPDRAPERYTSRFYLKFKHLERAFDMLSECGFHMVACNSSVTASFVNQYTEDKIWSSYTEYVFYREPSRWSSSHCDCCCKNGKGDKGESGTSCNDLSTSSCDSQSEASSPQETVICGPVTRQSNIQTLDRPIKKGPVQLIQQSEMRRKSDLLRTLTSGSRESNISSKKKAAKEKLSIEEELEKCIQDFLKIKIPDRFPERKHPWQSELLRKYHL
UniProt Q60612: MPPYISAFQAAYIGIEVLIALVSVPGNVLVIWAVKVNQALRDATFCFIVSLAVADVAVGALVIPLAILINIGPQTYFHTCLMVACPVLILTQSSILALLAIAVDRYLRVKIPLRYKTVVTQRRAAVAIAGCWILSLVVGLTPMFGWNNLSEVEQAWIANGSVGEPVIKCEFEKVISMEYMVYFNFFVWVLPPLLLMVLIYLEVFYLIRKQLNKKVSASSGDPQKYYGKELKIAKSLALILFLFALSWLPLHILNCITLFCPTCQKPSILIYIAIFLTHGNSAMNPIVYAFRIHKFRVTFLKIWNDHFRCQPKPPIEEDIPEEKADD
UniProt P97445: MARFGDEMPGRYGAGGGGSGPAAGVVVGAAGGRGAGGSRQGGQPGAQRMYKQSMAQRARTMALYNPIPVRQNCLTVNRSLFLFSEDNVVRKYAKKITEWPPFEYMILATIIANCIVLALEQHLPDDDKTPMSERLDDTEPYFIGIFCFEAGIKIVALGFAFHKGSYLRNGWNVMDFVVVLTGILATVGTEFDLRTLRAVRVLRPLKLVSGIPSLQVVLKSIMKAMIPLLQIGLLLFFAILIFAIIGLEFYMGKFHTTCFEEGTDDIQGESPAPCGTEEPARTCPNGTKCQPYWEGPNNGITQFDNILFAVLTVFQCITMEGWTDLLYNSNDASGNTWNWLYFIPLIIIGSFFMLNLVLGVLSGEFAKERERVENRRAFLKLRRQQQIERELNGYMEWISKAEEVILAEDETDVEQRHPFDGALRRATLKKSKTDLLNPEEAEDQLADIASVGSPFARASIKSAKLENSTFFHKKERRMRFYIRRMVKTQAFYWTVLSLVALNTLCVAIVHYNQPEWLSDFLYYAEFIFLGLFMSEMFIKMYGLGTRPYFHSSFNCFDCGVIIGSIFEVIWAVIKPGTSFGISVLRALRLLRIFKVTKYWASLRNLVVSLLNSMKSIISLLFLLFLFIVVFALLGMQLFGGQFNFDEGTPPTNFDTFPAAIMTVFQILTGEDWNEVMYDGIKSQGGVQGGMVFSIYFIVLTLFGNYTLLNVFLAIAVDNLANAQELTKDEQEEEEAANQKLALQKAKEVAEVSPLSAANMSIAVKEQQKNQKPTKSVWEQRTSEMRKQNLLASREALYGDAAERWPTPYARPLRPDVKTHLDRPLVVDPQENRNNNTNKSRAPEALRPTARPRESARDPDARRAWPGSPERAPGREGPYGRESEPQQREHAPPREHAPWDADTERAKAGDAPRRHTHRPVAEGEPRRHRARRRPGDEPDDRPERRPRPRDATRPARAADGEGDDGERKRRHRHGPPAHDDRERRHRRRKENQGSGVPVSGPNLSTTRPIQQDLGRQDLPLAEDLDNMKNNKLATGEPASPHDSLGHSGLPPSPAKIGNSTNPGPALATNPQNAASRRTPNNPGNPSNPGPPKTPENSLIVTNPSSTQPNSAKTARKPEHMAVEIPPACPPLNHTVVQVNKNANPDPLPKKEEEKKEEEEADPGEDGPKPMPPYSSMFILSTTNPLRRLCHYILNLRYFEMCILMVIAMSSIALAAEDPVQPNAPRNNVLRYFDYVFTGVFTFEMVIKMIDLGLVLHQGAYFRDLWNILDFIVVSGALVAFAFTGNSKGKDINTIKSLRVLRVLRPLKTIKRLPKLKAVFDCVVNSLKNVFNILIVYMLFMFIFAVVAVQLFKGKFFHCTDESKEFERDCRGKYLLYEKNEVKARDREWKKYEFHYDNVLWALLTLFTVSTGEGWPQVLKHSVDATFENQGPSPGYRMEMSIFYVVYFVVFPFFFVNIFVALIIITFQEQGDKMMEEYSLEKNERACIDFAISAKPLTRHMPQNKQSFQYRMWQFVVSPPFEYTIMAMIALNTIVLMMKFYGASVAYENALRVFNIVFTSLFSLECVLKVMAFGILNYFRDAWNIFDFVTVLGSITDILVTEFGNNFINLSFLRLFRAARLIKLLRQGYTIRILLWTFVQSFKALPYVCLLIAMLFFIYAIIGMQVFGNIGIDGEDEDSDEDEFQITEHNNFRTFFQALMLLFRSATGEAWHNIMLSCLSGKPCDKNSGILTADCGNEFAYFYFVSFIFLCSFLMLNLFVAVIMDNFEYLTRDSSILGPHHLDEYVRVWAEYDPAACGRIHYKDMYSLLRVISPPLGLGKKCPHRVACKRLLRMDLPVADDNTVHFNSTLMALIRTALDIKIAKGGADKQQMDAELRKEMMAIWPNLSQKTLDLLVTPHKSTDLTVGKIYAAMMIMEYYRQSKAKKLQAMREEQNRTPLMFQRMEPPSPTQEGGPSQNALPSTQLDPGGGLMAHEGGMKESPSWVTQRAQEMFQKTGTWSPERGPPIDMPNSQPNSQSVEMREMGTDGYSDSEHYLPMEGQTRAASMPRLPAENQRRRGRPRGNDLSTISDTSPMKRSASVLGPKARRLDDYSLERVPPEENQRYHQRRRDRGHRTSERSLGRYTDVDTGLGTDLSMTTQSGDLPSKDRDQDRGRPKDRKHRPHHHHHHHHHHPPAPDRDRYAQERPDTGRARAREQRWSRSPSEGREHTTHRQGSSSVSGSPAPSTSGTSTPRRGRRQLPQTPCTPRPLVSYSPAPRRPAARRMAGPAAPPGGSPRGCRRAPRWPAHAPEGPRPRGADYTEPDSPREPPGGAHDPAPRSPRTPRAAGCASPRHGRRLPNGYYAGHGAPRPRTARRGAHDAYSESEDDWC

Target: synaptotagmin-11 (mouse (endogenous in mouse brain)) (UniProt Q9R0N3)
Experiment: affinity purification with mass spectrometry; anti-Syt11 antibodies on protein A Dynabeads, 2 h, with mouse brain membranes solubilised in CL-91 with 2 mM Ca2+; controls: anti-Syt11 with Syt11-/- membranes and pre-immunization IgG; duplicates

Row | Molecule | binding
1 | B1 | binds

Target: synaptotagmin-11 (mouse (endogenous in mouse brain)) (UniProt Q9R0N3)
Experiment: as above
Remark: another data set of the same source

Row | Molecule | binding
2 | Cav2.2 (N-type voltage-gated Ca2+ channel) subunit α1B (from UniProt O55017 1-2327) | binds
3 | KCTD16 (from UniProt Q5DTY9 1-427) | binds
4 | TrkB (from UniProt P15209 32-821) (receptor) | binds
5 | adenosine A1 receptor (from UniProt Q60612 1-326) | no binding
6 | kinesin-3 motor KIF1A (from UniProt P33173 1-1695) | binds
7 | neurexin-1α (from UniProt Q9CS84 31-1514) | binds
8 | α1A subunit of Cav2.1 channels (P/Q-type voltage-gated Ca2+ channels) (from UniProt P97445 1-2368) | no binding
